{"source": "the supplement of paper PMC8728848", "binders": {"B1": {"name": "ERGIC1-EDTA (Homo sapiens), Q969X5 (protein)", "chain": "MKFLVNVALVFMVVYISYIYAAAHMHHHHHHDYDIPTTENLYFQGSEVVNELYVDDPDKDSGGKIDVSLNISLPNLHCELVGLDIQDEMGRHEVGHIDNSMKIPLNNGAGCRFEGQFSINKVPGNFHVSTHSATAQPQNPDMTHVIHKLSFGDTLQVQNIHGAFNALGGADRLTSNPLASHDYILKIVPTVYEDKSGKQRYSYQYTVANKEYVAYSHTGRIIPAIWFRYDLSPITVKYTE"}}, "assay_in_all_cases": "glycan array binding signal (z-score within array); higher = stronger binding", "conditions_in_all_cases": "glycan notation: IUPAC condensed, linker removed", "key": {"[1]": {"target": "Gal(b1-4)GlcNAc(b1-2)Man(a1-6)[GlcNAc(b1-2)Man(a1-3)]Man(b1-4)GlcNAc(b1-4)GlcNAc", "in_short": "(§1)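 Columns mapping to the same glycan were averaged after glycan names were converted to IUPAC-condensed notation. The data come from 3228 arrays in the Consortium for Functional Glycomics database, limited to those with an available protein sequence. Binding is reported as a within-array Z-score averaged across arrays of one protein sequence and across linkers.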"}, "[2]": {"target": "Gal(b1-4)GlcNAc(b1-2)Man(a1-6)[Man(a1-3)]Man(b1-4)GlcNAc(b1-4)GlcNAc", "in_short": "as §1"}, "[3]": {"target": "Gal(b1-4)GlcNAc(b1-2)[Gal(b1-4)GlcNAc(b1-4)]Man(a1-3)[Gal(b1-4)GlcNAc(b1-2)Man(a1-6)]Man(b1-4)GlcNAc(b1-4)GlcNAc", "in_short": "as §1"}, "[4]": {"target": "Gal(b1-4)GlcNAc(b1-2)[Gal(b1-4)GlcNAc(b1-4)]Man(a1-3)[Gal(b1-4)GlcNAc(b1-2)[Gal(b1-4)GlcNAc(b1-6)]Man(a1-6)]Man(b1-4)GlcNAc(b1-4)GlcNAc", "in_short": "as §1"}, "[5]": {"target": "Gal(b1-4)GlcNAc(b1-2)[Gal(b1-4)GlcNAc(b1-4)]Man(a1-3)[GlcNAc(b1-4)][Gal(b1-4)GlcNAc(b1-2)Man(a1-6)]Man(b1-4)GlcNAc(b1-4)GlcNAc", "in_short": "as §1"}, "[6]": {"target": "Gal(b1-4)GlcNAc(b1-2)[Gal(b1-4)GlcNAc(b1-4)]Man(a1-3)[GlcNAc(b1-4)][Gal(b1-4)GlcNAc(b1-2)[Gal(b1-4)GlcNAc(b1-6)]Man(a1-6)]Man(b1-4)GlcNAc(b1-4)GlcNAc", "in_short": "as §1"}, "[7]": {"target": "Gal(b1-4)GlcNAc(b1-2)[Gal(b1-4)GlcNAc(b1-6)]Man(a1-6)[Gal(b1-4)GlcNAc(b1-2)Man(a1-3)]Man(b1-4)GlcNAc(b1-4)GlcNAc", "in_short": "as §1"}, "[8]": {"target": "Gal(b1-4)GlcNAc(b1-2)[Gal(b1-4)GlcNAc(b1-6)]Man(a1-6)[Gal(b1-4)GlcNAc(b1-2)Man(a1-3)]Man(b1-4)GlcNAc(b1-4)[Fuc(a1-6)]GlcNAc", "in_short": "as §1"}, "[9]": {"target": "Gal(b1-4)GlcNAc(b1-2)[Gal(b1-4)GlcNAc(b1-6)]Man(a1-6)[GlcNAc(b1-4)][Gal(b1-4)GlcNAc(b1-2)Man(a1-3)]Man(b1-4)GlcNAc(b1-4)GlcNAc", "in_short": "as §1"}, "[10]": {"target": "Gal(b1-4)GlcNAc(b1-2)[Gal(b1-4)GlcNAc(b1-6)]Man(a1-6)[GlcNAc(b1-4)][Gal(b1-4)GlcNAc(b1-2)[Gal(b1-4)GlcNAc(b1-4)]Man(a1-3)]Man(b1-4)GlcNAc(b1-4)[Fuc(a1-6)]GlcNAc", "in_short": "as §1"}, "[11]": {"target": "Gal(b1-4)GlcNAc(b1-3)Gal(b1-3)GalNAc", "in_short": "as §1"}, "[12]": {"target": "Gal(b1-4)GlcNAc(b1-3)Gal(b1-3)GlcNAc", "in_short": "as §1"}, "[13]": {"target": "Gal(b1-4)GlcNAc(b1-3)Gal(b1-4)Glc", "in_short": "as §1"}, "[14]": {"target": "Gal(b1-4)GlcNAc(b1-3)Gal(b1-4)GlcNAc", "in_short": "as §1"}, "[15]": {"target": "Gal(b1-4)GlcNAc(b1-3)Gal(b1-4)GlcNAc(b1-2)Man(a1-3)[Gal(b1-4)GlcNAc(b1-3)Gal(b1-4)GlcNAc(b1-2)Man(a1-6)]Man(b1-4)GlcNAc(b1-4)GlcNAc", "in_short": "as §1"}, "[16]": {"target": "Gal(b1-4)GlcNAc(b1-3)Gal(b1-4)GlcNAc(b1-2)Man(a1-3)[Gal(b1-4)GlcNAc(b1-3)Gal(b1-4)GlcNAc(b1-2)Man(a1-6)]Man(b1-4)GlcNAc(b1-4)[Fuc(a1-6)]GlcNAc", "in_short": "as §1"}, "[17]": {"target": "Gal(b1-4)GlcNAc(b1-3)Gal(b1-4)GlcNAc(b1-2)[Gal(b1-4)GlcNAc(b1-3)Gal(b1-4)GlcNAc(b1-6)]Man(a1-6)[Gal(b1-4)GlcNAc(b1-3)Gal(b1-4)GlcNAc(b1-2)Man(a1-3)]Man(b1-4)GlcNAc(b1-4)GlcNAc", "in_short": "as §1"}, "[18]": {"target": "Gal(b1-4)GlcNAc(b1-3)Gal(b1-4)GlcNAc(b1-2)[Gal(b1-4)GlcNAc(b1-3)Gal(b1-4)GlcNAc(b1-6)]Man(a1-6)[Gal(b1-4)GlcNAc(b1-3)Gal(b1-4)GlcNAc(b1-2)Man(a1-3)]Man(b1-4)GlcNAc(b1-4)[Fuc(a1-6)]GlcNAc", "in_short": "as §1"}, "[19]": {"target": "Gal(b1-4)GlcNAc(b1-3)Gal(b1-4)GlcNAc(b1-3)Gal(b1-4)GlcNAc", "in_short": "as §1"}, "[20]": {"target": "Gal(b1-4)GlcNAc(b1-3)Gal(b1-4)GlcNAc(b1-3)Gal(b1-4)GlcNAc(b1-2)Man(a1-3)[Gal(b1-4)GlcNAc(b1-3)Gal(b1-4)GlcNAc(b1-3)Gal(b1-4)GlcNAc(b1-2)Man(a1-6)]Man(b1-4)GlcNAc(b1-4)GlcNAc", "in_short": "as §1"}, "[21]": {"target": "Gal(b1-4)GlcNAc(b1-3)Gal(b1-4)GlcNAc(b1-3)Gal(b1-4)GlcNAc(b1-2)Man(a1-3)[Gal(b1-4)GlcNAc(b1-3)Gal(b1-4)GlcNAc(b1-3)Gal(b1-4)GlcNAc(b1-2)Man(a1-6)]Man(b1-4)GlcNAc(b1-4)[Fuc(a1-6)]GlcNAc", "in_short": "as §1"}, "[22]": {"target": "Gal(b1-4)GlcNAc(b1-3)Gal(b1-4)GlcNAc(b1-3)Gal(b1-4)GlcNAc(b1-2)[Gal(b1-4)GlcNAc(b1-3)Gal(b1-4)GlcNAc(b1-3)Gal(b1-4)GlcNAc(b1-6)]Man(a1-6)[Gal(b1-4)GlcNAc(b1-3)Gal(b1-4)GlcNAc(b1-3)Gal(b1-4)GlcNAc(b1-2)Man(a1-3)]Man(b1-4)GlcNAc(b1-4)[Fuc(a1-6)]GlcNAc", "in_short": "as §1"}}, "note": "The list shows a part of the results.", "data": [{"binder": "B1", "values": [{"measurement": "glycan array binding signal (z-score)", "setting": "[1]", "value": -0.513}, {"measurement": "glycan array binding signal (z-score)", "setting": "[2]", "value": 0.299}, {"measurement": "glycan array binding signal (z-score)", "setting": "[3]", "value": -0.981}, {"measurement": "glycan array binding signal (z-score)", "setting": "[4]", "value": -0.333}, {"measurement": "glycan array binding signal (z-score)", "setting": "[5]", "value": 0.064}, {"measurement": "glycan array binding signal (z-score)", "setting": "[6]", "value": -0.648}, {"measurement": "glycan array binding signal (z-score)", "setting": "[7]", "value": 1.68}, {"measurement": "glycan array binding signal (z-score)", "setting": "[8]", "value": 0.574}, {"measurement": "glycan array binding signal (z-score)", "setting": "[9]", "value": -0.135}, {"measurement": "glycan array binding signal (z-score)", "setting": "[10]", "value": -0.619}, {"measurement": "glycan array binding signal (z-score)", "setting": "[11]", "value": -1.26}, {"measurement": "glycan array binding signal (z-score)", "setting": "[12]", "value": -0.555}, {"measurement": "glycan array binding signal (z-score)", "setting": "[13]", "value": -0.448}, {"measurement": "glycan array binding signal (z-score)", "setting": "[14]", "value": -0.664}, {"measurement": "glycan array binding signal (z-score)", "setting": "[15]", "value": 0.282}, {"measurement": "glycan array binding signal (z-score)", "setting": "[16]", "value": 2.13}, {"measurement": "glycan array binding signal (z-score)", "setting": "[17]", "value": 0.628}, {"measurement": "glycan array binding signal (z-score)", "setting": "[18]", "value": 1.67}, {"measurement": "glycan array binding signal (z-score)", "setting": "[19]", "value": -0.304}, {"measurement": "glycan array binding signal (z-score)", "setting": "[20]", "value": 1.1}, {"measurement": "glycan array binding signal (z-score)", "setting": "[21]", "value": 0.704}, {"measurement": "glycan array binding signal (z-score)", "setting": "[22]", "value": 1.27}]}]}
